These are yes or no findings as the source states them, for the method shown. A result given as binding can be weak or reduced; the word gives no strength.
B1: 10B10 IgG (antibody, V domains shown)
VH: EVQLVESGGGLVQPGRSMKLSCAASGFTFTNFYMAWVRQAPTKALEWVASINTGGGYTYYRDSVKGRFTVSRDNTRSTLYLQMDSLRSEETATYYCARHLTYYGRYYYFDYWGQGVMVTVSS
VL: DIQLTQSPHSLSASLGETVSIECLASEGISNYLAWFHQKPGKSPQLLIYYASSLQDGVPSRFSGSGSGTQYSLKISNMQPEDEGVYYCQQGYKYPLTFGSGTKLEIK
B2: 07A04 IgG (antibody, V domains shown)
VH: QVTLKESGPGILQPSHTLSLTCSFSGFSLSTYGMGVNWIRQPSGKGLEWLASIWWNGNTYNNPSLKSRLTVSKDTSNNQAFLKVTSVDTADTATYYCVHTRGIIRGRGLFFDYWGQGVMVTVSS
VL: DVQMTQSPYNLAASPGESVSINCKASKSISKYLAWYQQKPGKANKLLIYDGSTLQSGIPSRFSGSGSGTDFTLTIRSLEPEDFGLYYCQQHNEYPLTFGSGTKLEIKR
B3: 5E11 IgG (antibody, V domains shown)
VH: ELQLEQSGGGLVQPGGSLTLSCAASGFTFSKYAMAWVRQAPTKGLEWVASISTGGVNTYYRDSVKARFTISRDNAKNTQYLQMDSLRSEDTATYYCATHTGDYFDYWGQGVMVTVSS
VL: DIVLTQSPALAVSPGQRATISCRASQSVSISGINLMNWYQQKPGQQPKLLIYHASILASGIPTRFSGSGSGTDFTLTIDPVQADDIATYYCQQTRESPLTFGSGTNLEIK
B4: 5F11 IgG (antibody, V domains shown)
VH: EVQLVESGGGLVQPGRSLKLSCAASGFSFSNYGMAWVRQAATKGLEWVASISTGGGNTYYRDSVKGRFIVSRDNAKNTQYLQMDSLRSEDTATYYCTRHDRGGLYWGQGVMVTVSS
VL: DIVMTQAPLSVSVTPGESASISCRSSKSLLHSNGITYVYWYFQKPGKSPQVLIYRMSNLASGVPDRFSGSGSETDFTLKISRVEAEDVGIYHCGQLLENPYTFGAGTELELK

What follows are binders tested against cynomolgus GPRC5D (cynomolgus) (assay: cell ELISA, CHO expressing cynomolgus GPRC5D).

binding, binds:
B1
B2
B3
B4
